Drawing on paper PMC7618776, “Direct recruitment of Mis18 to interphase spindle pole bodies promotes CENP-A chromatin assembly” (Current biology : CB, 2023), this text covers binding for 3 molecules.

Chains of the proteins cited; added tags and fusions are not shown.
UniProt O74539: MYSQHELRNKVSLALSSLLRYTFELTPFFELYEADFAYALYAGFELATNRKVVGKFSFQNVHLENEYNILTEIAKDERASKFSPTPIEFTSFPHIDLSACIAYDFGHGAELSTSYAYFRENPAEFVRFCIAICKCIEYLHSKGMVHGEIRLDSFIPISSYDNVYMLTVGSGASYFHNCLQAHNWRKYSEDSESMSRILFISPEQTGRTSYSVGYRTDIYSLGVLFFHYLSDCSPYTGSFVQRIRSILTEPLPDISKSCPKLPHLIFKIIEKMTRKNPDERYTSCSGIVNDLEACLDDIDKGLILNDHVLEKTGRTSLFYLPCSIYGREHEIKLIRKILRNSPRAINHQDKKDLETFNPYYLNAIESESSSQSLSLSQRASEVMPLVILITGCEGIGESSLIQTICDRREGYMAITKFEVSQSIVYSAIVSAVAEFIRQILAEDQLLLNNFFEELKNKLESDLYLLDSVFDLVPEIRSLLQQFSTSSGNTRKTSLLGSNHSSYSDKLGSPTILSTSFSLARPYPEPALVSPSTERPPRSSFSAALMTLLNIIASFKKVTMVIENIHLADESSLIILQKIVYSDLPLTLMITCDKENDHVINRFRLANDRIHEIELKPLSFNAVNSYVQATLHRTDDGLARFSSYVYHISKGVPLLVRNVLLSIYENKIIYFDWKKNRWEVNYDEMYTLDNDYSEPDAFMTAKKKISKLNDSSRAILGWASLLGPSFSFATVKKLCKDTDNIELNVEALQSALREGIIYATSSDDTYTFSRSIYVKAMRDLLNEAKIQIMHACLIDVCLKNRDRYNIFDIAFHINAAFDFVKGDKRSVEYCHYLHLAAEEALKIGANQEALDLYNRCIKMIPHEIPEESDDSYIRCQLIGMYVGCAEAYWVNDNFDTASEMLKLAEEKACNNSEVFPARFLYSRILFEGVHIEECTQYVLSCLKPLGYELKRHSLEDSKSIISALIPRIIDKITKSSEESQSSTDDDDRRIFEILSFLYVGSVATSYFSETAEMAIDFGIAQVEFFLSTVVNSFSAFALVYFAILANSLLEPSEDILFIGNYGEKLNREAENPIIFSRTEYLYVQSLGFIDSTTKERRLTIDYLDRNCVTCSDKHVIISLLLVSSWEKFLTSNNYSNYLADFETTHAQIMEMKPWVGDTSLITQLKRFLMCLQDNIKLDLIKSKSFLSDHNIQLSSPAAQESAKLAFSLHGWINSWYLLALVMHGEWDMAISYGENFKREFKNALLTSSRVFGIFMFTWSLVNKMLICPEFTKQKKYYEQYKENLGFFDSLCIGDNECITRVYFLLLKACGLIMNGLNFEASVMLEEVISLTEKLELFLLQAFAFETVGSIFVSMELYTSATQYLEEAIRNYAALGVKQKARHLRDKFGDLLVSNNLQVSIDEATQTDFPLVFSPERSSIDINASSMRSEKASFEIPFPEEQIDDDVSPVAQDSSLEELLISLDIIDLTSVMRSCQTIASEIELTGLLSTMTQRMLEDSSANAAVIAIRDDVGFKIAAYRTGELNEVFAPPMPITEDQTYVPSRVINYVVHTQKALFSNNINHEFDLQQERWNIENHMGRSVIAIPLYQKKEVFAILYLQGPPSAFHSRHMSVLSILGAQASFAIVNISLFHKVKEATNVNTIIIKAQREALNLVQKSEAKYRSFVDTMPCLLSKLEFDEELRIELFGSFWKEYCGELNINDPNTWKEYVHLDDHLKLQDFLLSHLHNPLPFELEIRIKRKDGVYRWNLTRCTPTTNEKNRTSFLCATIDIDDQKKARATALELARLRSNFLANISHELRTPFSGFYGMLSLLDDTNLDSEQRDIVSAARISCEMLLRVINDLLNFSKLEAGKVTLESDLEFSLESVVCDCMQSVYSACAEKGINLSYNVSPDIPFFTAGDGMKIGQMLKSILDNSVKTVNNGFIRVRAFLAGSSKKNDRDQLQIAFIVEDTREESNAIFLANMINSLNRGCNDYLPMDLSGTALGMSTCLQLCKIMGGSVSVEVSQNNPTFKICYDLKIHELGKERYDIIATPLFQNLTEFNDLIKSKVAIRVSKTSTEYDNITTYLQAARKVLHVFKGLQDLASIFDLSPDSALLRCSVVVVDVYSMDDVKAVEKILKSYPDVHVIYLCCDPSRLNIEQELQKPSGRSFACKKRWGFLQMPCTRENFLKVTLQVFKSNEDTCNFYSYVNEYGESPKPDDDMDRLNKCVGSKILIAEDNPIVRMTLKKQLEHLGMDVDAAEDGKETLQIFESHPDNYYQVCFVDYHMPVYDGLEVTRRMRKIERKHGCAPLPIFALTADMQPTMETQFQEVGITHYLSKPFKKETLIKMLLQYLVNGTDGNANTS

Results are given in words; binding and its absence hold for the method and conditions named. Binding seen in cells or lysates may run through a third protein. Here binding means that the protein was enriched with, or labelled near, the bait; the list need not be complete. For part of these data: No binding means not detected with the bait. For part of these data: Sequences can lack the tags named with a protein.

Assay [1] has as its target Sad1-3V5 (C-terminally 3xV5-tagged Sad1) (S. pombe) (UniProt Q09825). As to the kind of experiment: affinity purification with mass spectrometry; anti-V5 IP (antibody cross-linked to Protein G Dynabeads) of Sad1-3V5 or Sad1-4A-3V5 from S. pombe cell extracts, label-free quantitative MS of triplicate IPs, compared with untagged control or wild-type Sad1-3V5 IPs; wild-type, csi1Δ, lem2Δ and csi1Δlem2Δ cells; SPB lysis buffer (25 mM HEPES, 150 mM KCl, 2 mM MgCl2, 0.5% Triton-X 100, 10% glycerol, 1 mM DTT), benzonase, 4°C 2 hrs.

In assay [2] the target is T1, Sad1-3V5 (C-terminally 3xV5-tagged Sad1) (S. pombe), Q09825.
T1 chain: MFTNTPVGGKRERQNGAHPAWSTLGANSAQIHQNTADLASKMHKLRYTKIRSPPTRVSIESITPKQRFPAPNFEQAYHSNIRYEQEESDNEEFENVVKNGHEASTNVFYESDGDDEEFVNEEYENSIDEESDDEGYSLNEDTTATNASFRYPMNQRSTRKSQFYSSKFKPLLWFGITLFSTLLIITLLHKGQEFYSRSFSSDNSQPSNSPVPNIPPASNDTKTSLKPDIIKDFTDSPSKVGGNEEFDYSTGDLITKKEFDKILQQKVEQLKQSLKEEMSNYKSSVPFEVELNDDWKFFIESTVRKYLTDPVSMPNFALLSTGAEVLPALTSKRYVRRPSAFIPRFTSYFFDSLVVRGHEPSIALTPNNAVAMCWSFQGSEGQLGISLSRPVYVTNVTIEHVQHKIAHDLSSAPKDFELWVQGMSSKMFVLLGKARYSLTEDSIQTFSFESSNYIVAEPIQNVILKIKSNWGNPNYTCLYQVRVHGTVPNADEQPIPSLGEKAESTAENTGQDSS
The experiment in a line: affinity purification with mass spectrometry; anti-V5 IP (antibody cross-linked to Protein G Dynabeads) of Sad1-3V5 or Sad1-4A-3V5 from S. pombe cell extracts, label-free quantitative MS of triplicate IPs, compared with untagged control or wild-type Sad1-3V5 IPs; wild-type, csi1Δ, lem2Δ and csi1Δlem2Δ cells; SPB lysis buffer (25 mM HEPES, 150 mM KCl, 2 mM MgCl2, 0.5% Triton-X 100, 10% glycerol, 1 mM DTT), benzonase, …. The following applies: remark: other sources report otherwise.

The target of another assay is Sad1-4A-3V5 (S. pombe) (UniProt Q09825). The experiment in a line: affinity purification with mass spectrometry; anti-V5 IP (antibody cross-linked to Protein G Dynabeads) of Sad1-3V5 or Sad1-4A-3V5 from S. pombe cell extracts, label-free quantitative MS of triplicate IPs, compared with untagged control or wild-type Sad1-3V5 IPs; wild-type, csi1Δ, lem2Δ and csi1Δlem2Δ cells; SPB lysis buffer (25 mM HEPES, 150 mM KCl, 2 mM MgCl2, 0.5% Triton-X 100, 10% glycerol, 1 mM DTT), benzonase, 4°C 2 hrs.

In the case of Mak3 (from UniProt O74539 1-2344), in assay [1], the binding entry is listed as “no binding”.

B1: Ima1, O13681 1-615 (protein)
chain: MESSRLFTLGLGNSDDGLKSTFGDKTVTCFYCNKKKEKIRDGTSTWTCSICEATNHIDEKGDILDYRPPTPTQDKGVGPFYAIRDFPSSSSFQSPFCEKCQMNQLIVNRMLADYLPDSSHPDYQAYEKALPEYKKSIEEKFPIVCSECYDSVQDQLDANDYEAKNQVLGYWLQKSKEQLNAKVPHHYPKASFVLWLLRGFGFSFFYLQSIVWHLYHSMIISLLPDGIRNLFLKAISYFLLDGSSSKIFYFNWLGFFVVFWNPYWYKMMDNPSWELFGRDQYIQCQALYLIIRLTCLYLLSCYESEILNLSSDTNLESDFLLRQIHAAFFFVTICFTWISISCLKPSPPPEVHLTGEILKPRKKRQESTSSVHRIGKESSDRKDGISGQNKLQQFATISILNNTNATSHLGNQSVRERAPEESPMTFLQKKMAALPTSSPVRPMLKPTLQLQNSPLSKLVPQEVGNKVNDSIHTTSNQPSKFSLNPSISLKGDNVIEKNLPFSVSTLKSTAKKDTGKAGDGQNREIQNEPVSLESHFSKSLALQNDPTEVIQVKNVLHRNRRNAKLLIAFTILFLVGLICGWRLNRFTMFIYYLCILVLATYYVMKHNFYPLRKVA
B1: in assay [2], the binding result was “binds”.

B2: Ima1 (protein, UniProt O13681 1-615)
chain: MESSRLFTLGLGNSDDGLKSTFGDKTVTCFYCNKKKEKIRDGTSTWTCSICEATNHIDEKGDILDYRPPTPTQDKGVGPFYAIRDFPSSSSFQSPFCEKCQMNQLIVNRMLADYLPDSSHPDYQAYEKALPEYKKSIEEKFPIVCSECYDSVQDQLDANDYEAKNQVLGYWLQKSKEQLNAKVPHHYPKASFVLWLLRGFGFSFFYLQSIVWHLYHSMIISLLPDGIRNLFLKAISYFLLDGSSSKIFYFNWLGFFVVFWNPYWYKMMDNPSWELFGRDQYIQCQALYLIIRLTCLYLLSCYESEILNLSSDTNLESDFLLRQIHAAFFFVTICFTWISISCLKPSPPPEVHLTGEILKPRKKRQESTSSVHRIGKESSDRKDGISGQNKLQQFATISILNNTNATSHLGNQSVRERAPEESPMTFLQKKMAALPTSSPVRPMLKPTLQLQNSPLSKLVPQEVGNKVNDSIHTTSNQPSKFSLNPSISLKGDNVIEKNLPFSVSTLKSTAKKDTGKAGDGQNREIQNEPVSLESHFSKSLALQNDPTEVIQVKNVLHRNRRNAKLLIAFTILFLVGLICGWRLNRFTMFIYYLCILVLATYYVMKHNFYPLRKVA
For the molecule B2, the binding entry with Sad1-4A-3V5 (S. pombe) is recorded as “binds”.
